Measured values as given in patent US20090214535A1.
No constants are given. Whether binding was seen depends on the method and setting. Some entries that bind do so weakly or less than the wild type.

The chains behind the UniProt entries cited, without tags or fusion partners. Where a name states a change or a piece, a line headed by the entry shows the natural chain unless it says otherwise.
UniProt P40238: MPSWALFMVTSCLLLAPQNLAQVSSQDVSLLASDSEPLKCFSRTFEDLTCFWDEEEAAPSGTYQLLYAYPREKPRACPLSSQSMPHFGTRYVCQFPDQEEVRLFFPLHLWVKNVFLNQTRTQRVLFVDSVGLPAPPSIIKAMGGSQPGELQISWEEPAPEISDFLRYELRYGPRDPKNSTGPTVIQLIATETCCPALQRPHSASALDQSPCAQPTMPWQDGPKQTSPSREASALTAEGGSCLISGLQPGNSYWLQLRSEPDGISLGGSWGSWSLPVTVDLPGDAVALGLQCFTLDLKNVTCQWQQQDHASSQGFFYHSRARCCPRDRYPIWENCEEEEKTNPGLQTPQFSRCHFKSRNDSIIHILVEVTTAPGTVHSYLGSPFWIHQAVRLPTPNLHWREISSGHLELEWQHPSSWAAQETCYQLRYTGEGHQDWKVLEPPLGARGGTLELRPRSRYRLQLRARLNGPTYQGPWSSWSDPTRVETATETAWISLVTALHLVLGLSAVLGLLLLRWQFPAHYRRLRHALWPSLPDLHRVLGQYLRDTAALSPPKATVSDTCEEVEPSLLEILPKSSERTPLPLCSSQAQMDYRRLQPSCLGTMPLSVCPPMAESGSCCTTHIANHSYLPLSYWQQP

How the values were obtained:
[1] = biological target: MG10-GST fusion protein (fusion protein of Gln 213 to Ala 231 of human Mpl and GST) (human) (UniProt P40238); assay: SPR (Biacore 3000) on immobilized MG10-GST
[2] = biological target: MG10-GST fusion protein (fusion protein of Gln 213 to Ala 231 of human Mpl and GST) (human) (UniProt P40238); assay: SPR (Biacore 3000) on immobilized MG10-GST, told again
[3] = biological target: MG10-GST fusion protein (fusion protein of Gln 213 to Ala 231 of human Mpl and GST) (human) (UniProt P40238); assay: affinity column with immobilized MG10-GST, eluted at pH 3.5

binding [1] | binding [2] | binding [3] | Binder
binds | binds |  | hVB22B u2-wz4 sc(Fv)2 peak 2 (single chain diabody-type conformational isomer) (scFv) QVQLVQSGPEVKKPGASVKVSCKASGYTFTNSWMNWVRQRPGKGLEWIGRIYPGDGETIYNGKFRVRVTITADESTSTAYMQLSSLRSEDTAVYYCARGYDDYSFAYWGQGTTVTVSSGGGGSGGGGSGGGGSDIVMTQSPLSLPVTPGEPASISCRSSKSLLHSNGNTYLYWFLQKPGQSPQLLIYRMSNLASGVPDRFSGSGSGTDFTLKISRVEAEDVGVYYCMQHIEYPFTFGQGTKLEIKGGGGSGGGGSGGGGSQVQLVQSGPEVKKPGASVKVSCKASGYTFTNSWMNWVRQRPGKGLEWIGRIYPGDGETIYNGKFRVRVTITADESTSTAYMQLSSLRSEDTAVYYCARGYDDYSFAYWGQGTTVTVSSGGGGSGGGGSGGGGSDIVMTQSPLSLPVTPGEPASISCRSSKSLLHSNGNTYLYWFLQKPGQSPQLLIYRMSNLASGVPDRFSGSGSGTDFTLKISRVEAEDVGVYYCMQHIEYPFTFGQGTKLEIK
 |  | binds | hVB22B u2-wz4 (v1) sc(Fv)2 (scFv) QVQLVQSGPEVKKPGASVKVSCKASGYTFTNSWMNWVRERPGKGLEWIGRIYPGDGETIYNGKFRVRVTITADESTSTAYMQLSSLRSEDTAVYYCARGYDDYSFAYWGQGTTVTVSSGGGGSGGGGSGGGGSDIVMTQSPLSLPVTPGEPASISCRSSKSLLHSNGNTYLYWFLEKPGQSPQLLIYRMSNLASGVPDRFSGSGSGTDFTLKISRVEAEDVGVYYCMQHIEYPFTFGQGTKLEIKGGGGSGGGGSGGGGSQVQLVQSGPEVKKPGASVKVSCKASGYTFTNSWMNWVRKRPGKGLEWIGRIYPGDGETIYNGKFRVRVTITADESTSTAYMQLSSLRSEDTAVYYCARGYDDYSFAYWGQGTTVTVSSGGGGSGGGGSGGGGSDIVMTQSPLSLPVTPGEPASISCRSSKSLLHSNGNTYLYWFLKKPGQSPQLLIYRMSNLASGVPDRFSGSGSGTDFTLKISRVEAEDVGVYYCMQHIEYPFTFGQGTKLEIK

The remaining lines, values behind:

Binder | binding [1] | binding [2] | binding [3]
hVB22B u2-wz4 sc(Fv)2 peak 1 (bivalent scFv-type conformational isomer) (scFv) QVQLVQSGPEVKKPGASVKVSCKASGYTFTNSWMNWVRQRPGKGLEWIGRIYPGDGETIYNGKFRVRVTITADESTSTAYMQLSSLRSEDTAVYYCARGYDDYSFAYWGQGTTVTVSSGGGGSGGGGSGGGGSDIVMTQSPLSLPVTPGEPASISCRSSKSLLHSNGNTYLYWFLQKPGQSPQLLIYRMSNLASGVPDRFSGSGSGTDFTLKISRVEAEDVGVYYCMQHIEYPFTFGQGTKLEIKGGGGSGGGGSGGGGSQVQLVQSGPEVKKPGASVKVSCKASGYTFTNSWMNWVRQRPGKGLEWIGRIYPGDGETIYNGKFRVRVTITADESTSTAYMQLSSLRSEDTAVYYCARGYDDYSFAYWGQGTTVTVSSGGGGSGGGGSGGGGSDIVMTQSPLSLPVTPGEPASISCRSSKSLLHSNGNTYLYWFLQKPGQSPQLLIYRMSNLASGVPDRFSGSGSGTDFTLKISRVEAEDVGVYYCMQHIEYPFTFGQGTKLEIK | binds | binds | 
humanized anti-human Mpl antibody hVB22B u2-wz4 sc(Fv)2 (bulk, before separation of the conformational isomers) (scFv) QVQLVQSGPEVKKPGASVKVSCKASGYTFTNSWMNWVRQRPGKGLEWIGRIYPGDGETIYNGKFRVRVTITADESTSTAYMQLSSLRSEDTAVYYCARGYDDYSFAYWGQGTTVTVSSGGGGSGGGGSGGGGSDIVMTQSPLSLPVTPGEPASISCRSSKSLLHSNGNTYLYWFLQKPGQSPQLLIYRMSNLASGVPDRFSGSGSGTDFTLKISRVEAEDVGVYYCMQHIEYPFTFGQGTKLEIKGGGGSGGGGSGGGGSQVQLVQSGPEVKKPGASVKVSCKASGYTFTNSWMNWVRQRPGKGLEWIGRIYPGDGETIYNGKFRVRVTITADESTSTAYMQLSSLRSEDTAVYYCARGYDDYSFAYWGQGTTVTVSSGGGGSGGGGSGGGGSDIVMTQSPLSLPVTPGEPASISCRSSKSLLHSNGNTYLYWFLQKPGQSPQLLIYRMSNLASGVPDRFSGSGSGTDFTLKISRVEAEDVGVYYCMQHIEYPFTFGQGTKLEIK |  |  | binds
hVB22B u2-wz4 (v3) sc(Fv)2 (scFv) QVQLVQSGPEVKKPGASVKVSCKASGYTFTNSWMNWVRERPGKGLEWIGRIYPGDGETIYNGKFRVRVTITADESTSTAYMQLSSLRSEDTAVYYCARGYDDYSFAYWGQGTTVTVSSGGGGSGGGGSGGGGSDIVMTQSPLSLPVTPGEPASISCRSSKSLLHSNGNTYLYWFLKKPGQSPQLLIYRMSNLASGVPDRFSGSGSGTDFTLKISRVEAEDVGVYYCMQHIEYPFTFGQGTKLEIKGGGGSGGGGSGGGGSQVQLVQSGPEVKKPGASVKVSCKASGYTFTNSWMNWVRKRPGKGLEWIGRIYPGDGETIYNGKFRVRVTITADESTSTAYMQLSSLRSEDTAVYYCARGYDDYSFAYWGQGTTVTVSSGGGGSGGGGSGGGGSDIVMTQSPLSLPVTPGEPASISCRSSKSLLHSNGNTYLYWFLEKPGQSPQLLIYRMSNLASGVPDRFSGSGSGTDFTLKISRVEAEDVGVYYCMQHIEYPFTFGQGTKLEIK |  |  | binds
